According to paper PMC4976216:
Results are given in words; binding and its absence hold for the method and conditions named. Some results given as binding are weak or reduced against the parent protein; the word gives no strength. Sequences can lack the tags named with a protein.

T1: Full-length 6His-FIP5 (UniProt Q9BXF6)
T1 sequence: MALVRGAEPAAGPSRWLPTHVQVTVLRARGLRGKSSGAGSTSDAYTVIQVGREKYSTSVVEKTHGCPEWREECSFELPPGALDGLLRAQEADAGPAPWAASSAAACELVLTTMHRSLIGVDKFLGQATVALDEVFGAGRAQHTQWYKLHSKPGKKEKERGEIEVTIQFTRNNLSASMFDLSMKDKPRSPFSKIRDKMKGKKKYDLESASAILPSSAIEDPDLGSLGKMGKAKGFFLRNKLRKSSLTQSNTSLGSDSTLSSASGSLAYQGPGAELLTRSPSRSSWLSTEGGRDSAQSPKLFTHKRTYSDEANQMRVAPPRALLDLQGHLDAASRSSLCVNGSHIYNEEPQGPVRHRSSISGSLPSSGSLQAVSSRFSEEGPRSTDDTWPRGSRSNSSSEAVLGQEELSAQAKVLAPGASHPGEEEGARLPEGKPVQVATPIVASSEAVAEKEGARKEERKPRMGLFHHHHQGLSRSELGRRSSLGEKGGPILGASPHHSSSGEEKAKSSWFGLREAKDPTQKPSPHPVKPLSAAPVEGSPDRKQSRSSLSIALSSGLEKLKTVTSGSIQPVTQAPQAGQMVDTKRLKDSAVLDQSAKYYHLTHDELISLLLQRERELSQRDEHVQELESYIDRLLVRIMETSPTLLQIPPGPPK

T2: GST-CGNaa355-579 (UniProt Q9P2M7)
T2 sequence: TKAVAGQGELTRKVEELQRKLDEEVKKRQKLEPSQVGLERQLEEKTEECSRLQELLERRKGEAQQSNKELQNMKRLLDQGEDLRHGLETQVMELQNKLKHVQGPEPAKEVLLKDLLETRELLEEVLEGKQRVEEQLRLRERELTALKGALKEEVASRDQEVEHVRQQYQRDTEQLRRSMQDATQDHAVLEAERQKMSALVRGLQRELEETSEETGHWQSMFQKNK


Tests used:
Full-length 6His-FIP5 = molecular target: T1, Full-length 6His-FIP5; experiment: co-IP; purified recombinant 6His-FIP5 and 6His-CGN, precipitated with anti-FIP5 antibody; immunoblots with anti-CGN and anti-FIP5; both purified
GST-CGNaa355-579 = molecular target: T2, GST-CGNaa355-579; experiment: pull-down; glutathione beads coated with 10 μg GST fusion protein, soluble recombinant 6His-FIP5; 50 mM HEPES pH 7.4, 150 mM NaCl, 5 mM MgCl2, 0.1% Triton X-100, 0.1% BSA, 1 mM PMSF; 25 °C, 1 h; Coomassie stained SDS-PAGE; both purified

Row | binding (Full-length 6His-FIP5) | binding (GST-CGNaa355-579) | Binder
1 | binds |  | Full-length 6His-CGN (protein, UniProt Q9P2M7 1-1203) MEQAPNMAEPRGPVDHGVQIRFITEPVSGAEMGTLRRGGRRPAKDARASTYGVAVRVQGIAGQPFVVLNSGEKGGDSFGVQIKGANDQGASGALSSDLELPENPYSQVKGFPAPSQSSTSDEEPGAYWNGKLLRSHSQASLAGPGPVDPSNRSNSMLELAPKVASPGSTIDTAPLSSVDSLINKFDSQLGGQARGRTGRRTRMLPPEQRKRSKSLDSRLPRDTFEERERQSTNHWTSSTKYDNHVGTSKQPAQSQNLSPLSGFSRSRQTQDWVLQSFEEPRRSAQDPTMLQFKSTPDLLRDQQEAAPPGSVDHMKATIYGILREGSSESETSVRRKVSLVLEKMQPLVMVSSGSTKAVAGQGELTRKVEELQRKLDEEVKKRQKLEPSQVGLERQLEEKTEECSRLQELLERRKGEAQQSNKELQNMKRLLDQGEDLRHGLETQVMELQNKLKHVQGPEPAKEVLLKDLLETRELLEEVLEGKQRVEEQLRLRERELTALKGALKEEVASRDQEVEHVRQQYQRDTEQLRRSMQDATQDHAVLEAERQKMSALVRGLQRELEETSEETGHWQSMFQKNKEDLRATKQELLQLRMEKEEMEEELGEKIEVLQRELEQARASAGDTRQVEVLKKELLRTQEELKELQAERQSQEVAGRHRDRELEKQLAVLRVEADRGRELEEQNLQLQKTLQQLRQDCEEASKAKMVAEAEATVLGQRRAAVETTLRETQEENDEFRRRILGLEQQLKETRGLVDGGEAVEARLRDKLQRLEAEKQQLEEALNASQEEEGSLAAAKRALEARLEEAQRGLARLGQEQQTLNRALEEEGKQREVLRRGKAELEEQKRLLDRTVDRLNKELEKIGEDSKQALQQLQAQLEDYKEKARREVADAQRQAKDWASEAEKTSGGLSRLQDEIQRLRQALQASQAERDTARLDKELLAQRLQGLEQEAENKKRSQDDRARQLKGLEEKVSRLETELDEEKNTVELLTDRVNRGRDQVDQLRTELMQERSARQDLECDKISLERQNKDLKTRLASSEGFQKPSASLSQLESQNQLLQERLQAEEREKTVLQSTNRKLERKVKELSIQIEDERQHVNDQKDQLSLRVKALKRQVDEAEEEIERLDGLRKKAQREVEEQHEVNEQLQARIKSLEKDSWRKASRSAAESALKNEGLSSDEEFDSVYDPSSIASLLTESNLQTSSC
2 |  | binds | Full-length 6His-FIP5 (protein, UniProt Q9BXF6 1-653) MALVRGAEPAAGPSRWLPTHVQVTVLRARGLRGKSSGAGSTSDAYTVIQVGREKYSTSVVEKTHGCPEWREECSFELPPGALDGLLRAQEADAGPAPWAASSAAACELVLTTMHRSLIGVDKFLGQATVALDEVFGAGRAQHTQWYKLHSKPGKKEKERGEIEVTIQFTRNNLSASMFDLSMKDKPRSPFSKIRDKMKGKKKYDLESASAILPSSAIEDPDLGSLGKMGKAKGFFLRNKLRKSSLTQSNTSLGSDSTLSSASGSLAYQGPGAELLTRSPSRSSWLSTEGGRDSAQSPKLFTHKRTYSDEANQMRVAPPRALLDLQGHLDAASRSSLCVNGSHIYNEEPQGPVRHRSSISGSLPSSGSLQAVSSRFSEEGPRSTDDTWPRGSRSNSSSEAVLGQEELSAQAKVLAPGASHPGEEEGARLPEGKPVQVATPIVASSEAVAEKEGARKEERKPRMGLFHHHHQGLSRSELGRRSSLGEKGGPILGASPHHSSSGEEKAKSSWFGLREAKDPTQKPSPHPVKPLSAAPVEGSPDRKQSRSSLSIALSSGLEKLKTVTSGSIQPVTQAPQAGQMVDTKRLKDSAVLDQSAKYYHLTHDELISLLLQRERELSQRDEHVQELESYIDRLLVRIMETSPTLLQIPPGPPK
